Assay in all cases: co-IP
Test [1] deals with T1, RNF4DN (C132/135S), dominant-negative RING-finger mutant of RNF4 (human (cDNA from a HeLa cDNA library)) (UniProt P78317).
T1 sequence: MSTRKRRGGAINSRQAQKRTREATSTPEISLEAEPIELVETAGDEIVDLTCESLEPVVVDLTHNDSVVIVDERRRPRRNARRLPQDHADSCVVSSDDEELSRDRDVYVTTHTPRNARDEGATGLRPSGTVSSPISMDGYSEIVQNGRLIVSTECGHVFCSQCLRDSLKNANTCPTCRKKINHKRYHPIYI

Test [2] addresses T1, RNF4DN (C132/135S), dominant-negative RING-finger mutant of RNF4 (human (cDNA from a HeLa cDNA library)). This is another data set of the same source.
In test [3] the target is T2, Centromeric protein B (CENP-B), FLAG-tagged, wild type (human) (UniProt P07199).
T2 sequence: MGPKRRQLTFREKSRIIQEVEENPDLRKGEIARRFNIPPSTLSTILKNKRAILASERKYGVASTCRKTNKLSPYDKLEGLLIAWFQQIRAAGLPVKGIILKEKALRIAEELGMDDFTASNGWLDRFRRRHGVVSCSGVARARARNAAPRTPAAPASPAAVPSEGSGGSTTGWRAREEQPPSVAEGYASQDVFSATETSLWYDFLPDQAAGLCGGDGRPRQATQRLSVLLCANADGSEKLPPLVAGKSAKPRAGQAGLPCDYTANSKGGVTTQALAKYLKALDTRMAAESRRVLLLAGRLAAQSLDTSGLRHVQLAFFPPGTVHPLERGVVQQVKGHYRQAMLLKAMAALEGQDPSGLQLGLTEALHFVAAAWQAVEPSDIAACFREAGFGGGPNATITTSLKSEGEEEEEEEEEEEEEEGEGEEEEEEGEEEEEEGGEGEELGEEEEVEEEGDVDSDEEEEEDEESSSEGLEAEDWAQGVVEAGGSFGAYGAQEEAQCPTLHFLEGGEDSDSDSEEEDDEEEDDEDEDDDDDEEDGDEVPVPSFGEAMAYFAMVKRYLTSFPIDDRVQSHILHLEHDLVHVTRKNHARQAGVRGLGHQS

Test [4] concerns the target T2, Centromeric protein B (CENP-B), FLAG-tagged, wild type (human). The source holds these as a separate data set.

Like-named read-outs stand apart in the source and are kept apart here. No constants are given. Whether binding was seen depends on the method and setting. Binding seen in cells or lysates may run through a third protein. Some entries that bind do so weakly or less than the wild type. Sequences can lack the tags named with a protein.

B1: Centromeric protein B (CENP-B), FLAG-tagged, wild type (protein, UniProt P07199 1-599)
chain: T2 sequence
For the molecule B1, the binding result in test [1] is recorded as “no binding (condition: without NEM)”; in test [2], “binds”.

B2: RNF4DN (C132/135S), dominant-negative RING-finger mutant of RNF4 (enzyme, UniProt P78317 1-190)
chain: T1 sequence
Regarding B2, the binding entry in test [3] is given as “no binding (condition: without NEM)”; in test [4] it was “binds”.
